For 34 compounds, survivor count and T/C results are on record in PubChem BioAssay AID330 (DTP/NCI, 2004).

The experiment relates to P388 leukemia ip, CD2F1 mice, survival T/C. Briefly: NCI In Vivo Anticancer Drug Screen. Data for tumor model P388 Leukemia (intraperitoneal) in CD2F1 (CDF1) mice. Particulars: T/C endpoint: median survival time, higher T/C = longer survival.
Where [1] appears, read: dose: 400.0 mg/kg/injection, schedule: Q04DX002 (ip), vehicle: saline.
Setting [2] is: dose: 200.0 mg/kg/injection, schedule: Q01DX009 (ip), vehicle: saline with Tween-80.
[3] abbreviates: dose: 200.0 mg/kg/injection, schedule: Q01DX005 (ip), vehicle: Klucel (hydroxypropylcellulose) (HPC).
Setting [4] is: dose: 200.0 mg/kg/injection, schedule: Q01DX009 (ip), vehicle: Klucel (hydroxypropylcellulose) (HPC).
[5] abbreviates: dose: 400.0 mg/kg/injection, schedule: Q01DX001 (ip), vehicle: saline with Tween-80.
Where [6] appears, read: dose: 100.0 mg/kg/injection, schedule: Q01DX009 (ip), vehicle: saline with Tween-80.
The mark [7] stands for this setting: dose: 50.0 mg/kg/injection, schedule: Q01DX009 (ip), vehicle: saline.
The mark [8] stands for this setting: dose: 100.0 mg/kg/injection, schedule: Q01DX009 (ip), vehicle: saline.
Where [9] appears, read: dose: 200.0 mg/kg/injection, schedule: Q01DX009 (ip), vehicle: saline.
Setting [10] is: dose: 400.0 mg/kg/injection, schedule: Q04DX003 (ip), vehicle: Klucel (hydroxypropylcellulose) (HPC).
Setting [11] is: dose: 60.0 mg/kg/injection, schedule: Q01DX005 (ip), vehicle: saline with Tween-80.
[12] abbreviates: dose: 240.0 mg/kg/injection, schedule: Q01DX005 (ip), vehicle: saline with Tween-80.
The mark [13] stands for this setting: dose: 50.0 mg/kg/injection, schedule: Q01DX009 (ip), vehicle: saline with Tween-80.

The list is a part of this screen's results and no random one: it gathers tests that were run many times, whatever their T/C, doses with no T/C, and many T/C values between a quarter and a half above the control. Other doses and runs of a compound stand elsewhere. T/C is the treated group as % of the vehicle group. Some entries give survivors of the animals treated and no T/C: the source files T/C as zero there, which appears to mark a toxic dose or a test without result, not a measured value. Some doses without a T/C left all or most animals alive at the check, yet need not have been tolerated: survival well below the control is almost never listed, so the zero probably covers shortened survival too. Counts of survivors are from the toxicity check (mostly the fifth day) where no day follows; animals may have died later. Schedules are NCI's codes, taken here to give the interval after Q, in days (D) or hours (H), and the number of doses after X. Some entries were tested several times; the results are listed from low to high. Where survival is the endpoint, the PubChem record calls one and a half times the control and up active, and a quarter to a half above the control has no call in these data; cut-offs in other NCI protocols can differ.

In the case of `[Cu+2].[NH-]/C=C\[NH-].[NH-]/C=C\[NH-].[O-][Cl+3]([O-])([O-])O`, the survivor count by setting is: (dose: 100.0 mg/kg/injection, schedule: Q04DX002 (ip), vehicle: saline) 0 of 6; (dose: 200.0 mg/kg/injection, schedule: Q04DX002 (ip), vehicle: saline) 0 of 6; under setting [1], 0 of 6.

As to `O=C1C(c2ccccc2)=C(c2ccccc2)C2(c3ccccc3)C=NNC12c1ccccc1` (configuration not stated), the survivor count by setting is: (dose: 25.0 mg/kg/injection, schedule: Q01DX005 (ip), vehicle: Klucel (hydroxypropylcellulose) (HPC)) 5 of 5; (dose: 100.0 mg/kg/injection, schedule: Q04DX002 (ip), vehicle: Klucel (hydroxypropylcellulose) (HPC)) 6 of 6; (dose: 200.0 mg/kg/injection, schedule: Q04DX002 (ip), vehicle: Klucel (hydroxypropylcellulose) (HPC)) 4 of 6; (dose: 400.0 mg/kg/injection, schedule: Q04DX002 (ip), vehicle: Klucel (hydroxypropylcellulose) (HPC)) 0 of 6. For `CC1(C)OCC(C2OC3OC(C)(C)OC3/C2=N/NC(=O)c2cc3cc(OCc4ccccc4)ccc3[nH]2)O1` (configuration not stated), the survivor count (dose: 50.0 mg/kg/injection, schedule: Q01DX005 (ip), vehicle: saline) was 6 of 6 and the survivor count (dose: 100.0 mg/kg/injection, schedule: Q01DX005 (ip), vehicle: saline) is on record as 6 of 6. Regarding `CCCCCCCCCCCCCCCCCCCCN1CCOCC1`, the survivor count under setting [2] is given as 4 of 6. `CC1=CC(C/C(C)=C/COc2ccc3ccc(=O)oc3c2)OC1=O` (configuration not stated): the survivor count reads like this: (dose: 100.0 mg/kg/injection, schedule: Q01DX005 (ip), vehicle: Klucel (hydroxypropylcellulose) (HPC)) 6 of 6; under setting [3], 6 of 6. With `C1CCC([Se][Se]C2CCCCC2)CC1`, the survivor count under setting [4] is 1 of 6.

`N=C(N)SCC[n+]1cccc2cccc(O)c21`: the survivor count under setting [1] was 1 of 6. Take `Cc1ccc(NCCN(C)C)c2c(=O)c3c(O)cccc3sc12`: the survivor count runs as follows: (dose: 100.0 mg/kg/injection, schedule: Q01DX009 (ip), vehicle: suspension in saline) 6 of 6; (dose: 200.0 mg/kg/injection, schedule: Q01DX009 (ip), vehicle: suspension in saline) 6 of 6. Take `O=NN(CCCl)C(=O)Nc1ccc(CCO)cc1`: the T/C (dose: 0.33 mg/kg/injection, schedule: Q01DX009 (ip), vehicle: saline + alcohol) was 145 % of control. On to `COC(=O)/C=C(\C)NC1CC(OC2C[C@](O)(C(C)=O)Cc3c(O)c4c(c(O)c32)C(=O)c2c(OC)cccc2C4=O)OC(C)C1O` (some centres not stated), for which the T/C is, setting by setting: (dose: 25.0 mg/kg/injection, schedule: Q04DX003 (ip), vehicle: saline with Tween-80) 130 and 133 % of control; (dose: 40.0 mg/kg/injection, schedule: Q04DX003 (ip), vehicle: saline with Tween-80) 149 % of control. Take `Cn1c2cc([N+](=O)[O-])ccc2c(=O)c2c(O)cc3c(c21)C=CC(C)(C)O3`: under setting [5], the survivor count was 5 of 6. Turning to `NNC(=O)OC12CC3CC(CC(C3)C1)C2`, the survivor count under setting [6] is reported as 5 of 6. With `C[n+]1ccc(Nc2ccc(NC(=O)c3ccc(Nc4cc[n+](C)c5ccc([N+](=O)[O-])cc45)cc3)cc2)cc1`, for the setting “dose: 64.0 mg/kg/injection, schedule: Q01DX009 (ip), vehicle: saline”, the T/C was 129 % of control. Besides, the survivor count (dose: 128.0 mg/kg/injection, schedule: Q01DX009 (ip), vehicle: saline) is given as 6 of 6. Regarding `CCOC(=O)c1cn[nH]c1N`, the survivor count (dose: 100.0 mg/kg/injection, schedule: Q01DX009 (ip), vehicle: Klucel (hydroxypropylcellulose) (HPC)) is recorded as 6 of 6 and the survivor count under setting [4] is 6 of 6. On to `CC1(C)CC(=O)C([Se]C2=C(O)CC(C)(C)CC2=O)=C(O)C1`, for which the survivor count was 5 of 6 under setting [7], 2 of 6 under setting [8] and 0 of 6 under setting [9].

For `O=S(=O)(O)Oc1c(S(=O)(=O)O)c(S(=O)(=O)O)c(O)c(S(=O)(=O)O)c1S(=O)(=O)O`, the survivor count by setting is: (dose: 200.0 mg/kg/injection, schedule: Q01DX001 (ip), vehicle: saline with Tween-80) 2 of 6; under setting [5], 0 of 6.

`CC(=C\c1ccc(Cl)c(Cl)c1)/C(C)=N/NC(N)=Nc1ccc(C)cc1`: the survivor count (dose: 100.0 mg/kg/injection, schedule: Q04DX002 (ip), vehicle: saline with Tween-80) was 1 of 6. Regarding `CS/C(=C1/C(=O)N(c2ccccc2)N=C1c1ccc(Br)cc1)N1CC1`, the survivor count under setting [10] is on record as 5 of 5. On to `CC(C)NC(=O)OCc1c(COC(=O)NC(C)C)c2cccn2c2c1cnn2-c1ccccc1`, for which the survivor count under setting [11] is reported as 6 of 6. With `CN1C2CCC1c1c([nH]c3ccccc13)C2` (configuration not stated), under setting [12], the survivor count was 0 of 6. In the case of `CC(=O)OC1=C(Br)CCc2ccccc21`, the survivor count (dose: 50.0 mg/kg/injection, schedule: Q01DX009 (ip), vehicle: DMSO) is 4 of 6. `C[N+](C)(C)c1ccc(/C=C/[N+](=O)[O-])cc1`: the survivor count under setting [13] was 3 of 6. With `CN(C)C1CCc2ccc3ccccc3c2C1=O` (configuration not stated), the survivor count under setting [3] is on record as 0 of 6. As for `CC(=O)CC(=O)c1ccccc1.CC(=O)CC(=O)c1ccccc1.[Ni]`, the survivor count was 6 of 6 (dose: 25.0 mg/kg/injection, schedule: Q01DX009 (ip), vehicle: saline with Tween-80); 3 of 6 and 5 of 6 under setting [13]; 2 of 6 under setting [6]; 0 of 6 under setting [2]. For the compound `COc1ccc2nc3cc(Cl)ccc3c(NCCCNCCCCNCCCNc3c4ccc(Cl)cc4nc4ccc(OC)nc34)c2n1`, the survivor count was 5 of 6 (dose: 3.75 mg/kg/injection, schedule: Q01DX005 (ip), vehicle: saline with Tween-80); 1 of 6 (dose: 7.5 mg/kg/injection, schedule: Q01DX005 (ip), vehicle: saline with Tween-80); 0 of 6 (dose: 15.0 mg/kg/injection, schedule: Q01DX005 (ip), vehicle: saline with Tween-80); 1 of 6 under setting [11]; 0 of 6 (dose: 120.0 mg/kg/injection, schedule: Q01DX005 (ip), vehicle: saline with Tween-80); 0 of 6 under setting [12]. For `O=C1Nc2ccccc2/C1=N/n1c(-c2ccccc2)nc2ccccc2c1=O`, for the setting “dose: 50.0 mg/kg/injection, schedule: Q01DX005 (ip), vehicle: Klucel (hydroxypropylcellulose) (HPC)”, the survivor count is 5 of 6.

`O=C(CCSCCCl)Nc1c(C(=O)O)cc([N+](=O)[O-])cc1[N+](=O)[O-]`: under “dose: 200.0 mg/kg/injection, schedule: Q04DX003 (ip), vehicle: DMSO”, the survivor count is recorded as 6 of 6.

In the case of `COc1ccc(Cc2nnc(NN)[nH]c2=O)cc1OC`, the survivor count under setting [12] is 1 of 6.

As for `NOCc1cccc(CON)c1`, the survivor count reads like this: under setting [6], 6 of 6; under setting [2], 4 of 6.

Consider `Cc1ccccc1CC(C)c1ccccc1` (configuration not stated), for which the survivor count under setting [2] is 2 of 6. With `C[N+]1(C)CCCC2CCc3ccccc3C21` (configuration not stated), the survivor count runs as follows: (dose: 100.0 mg/kg/injection, schedule: Q04DX003 (ip), vehicle: Klucel (hydroxypropylcellulose) (HPC)) 0 of 6; (dose: 200.0 mg/kg/injection, schedule: Q04DX003 (ip), vehicle: Klucel (hydroxypropylcellulose) (HPC)) 0 of 6; under setting [10], 0 of 6. `COC(OC(CO)C(O)S(=O)(=O)O)C(O)S(=O)(=O)O` (configuration not stated): the T/C by setting is: under setting [7], 129 % of control; under setting [8], 142 % of control; under setting [9], 138 % of control. Turning to `O=CC1=CSC(=C2SC=CS2)S1`, the survivor count runs as follows: (dose: 120.0 mg/kg/injection, schedule: Q01DX005 (ip), vehicle: Klucel (hydroxypropylcellulose) (HPC)) 3 of 6; (dose: 240.0 mg/kg/injection, schedule: Q01DX005 (ip), vehicle: Klucel (hydroxypropylcellulose) (HPC)) 0 of 6. Consider `C=CCN(CC=C)P(=O)(N(CC=C)CC=C)N(CC=C)CC=C`, for which the survivor count under setting [3] is given as 0 of 6.
